Results published in patent publication US9572820B2, “Methods of treating autophagy-associated disorders and related pharmaceutical compositions, diagnostics, screening techniques and kits” (priority 2011, dated 2017).
For at least one compound, name, drawing or mass did not settle the structure.

Key:
[1] = test system: LC3-GFP/RFP HeLa cells; assay: High-content imaging screen of LC3-GFP/RFP puncta (Cellomics ArrayScan); type: cell-based; details: LC3-GFP/RFP puncta per cell, 4 hours incubation; hit = 3 standard deviations above or below mean of negative control wells
Protocol: FIG. 1X6. Use of Cellomics ArrayScan to detect induction of authophagy. […] Wells were scanned for number, area, or intensity of GFP+ or RFP+ puncta per cell using a Cellomics ArrayScan. Negative control (DMF-treated) wells were also measured. Each dot represents the data from a single well.
FIG. 2X6. Chemical library screen for modulation of autophagy. LC3-RFP/GFP HeLa cells were incubated with compounds from the chemical library for 4 hours, then fixed in 0.1% PFA. Wells were scanned using a Cellomics ArrayScan. […] Each dot represents the data from a single well.
FIG. 4X6. […] Wells were scanned using a Cellomics ArrayScan. […] Each dot represents the data from four separate wells, and error bars are standard deviation.
LC3 is a widely-used marker for autophagic vacuoles. HeLa cells stably transduced with LC3-GFP/RFP tandem construct generate fluorescent autophagic puncta, which are either green/yellow (early autophagosomes) or red (late autophagosomes fused with lysosomes, which degrades the GFP). By quantitating the number or total area of fluorescent puncta per cell, we can detect alterations in autophagic flux and regulation. […]
Using the above system, we performed two separate screens on a chemical library. This library contains 1,200 FDA-approved compounds, and represents wide functional and chemical diversity. […]

[2] = test system: IL-1α; assay: IL-1α release (ELISA) from LPS+IFN-γ stimulated BMM; type: cell-based, murine; details: Atg5fl/fl LysM-Cre− BMM, 12 h, 50 μg/ml rapamycin, 10 mM 3-MA or 100 nM Bafilomycin A1

Row | SMILES | modulation of autophagy (agonist/inducer or antagonist/inhibitor) [1] | IL-1α secreted [2]
1 | Fc1ccc(C(OCCN2CCN(CCCc3ccccc3)CC2)c2ccc(F)cc2)cc1 [GBR 12909] | agonists or inducers of autophagy | –
2 | CCCNCC(O)COc1ccccc1C(=O)CCc1ccccc1 (stereo not drawn) [propafenone] | agonists or inducers of autophagy | –
3 | CO[C@H]1C[C@@H]2CC[C@@H](C)[C@@](O)(O2)C(=O)C(=O)N2CCCC[C@H]2C(=O)O[C@H]([C@H](C)C[C@@H]2CC[C@@H](O)[C@H](OC)C2)CC(=O)[C@H](C)/C=C(\C)[C@@H](O)[C@@H](OC)C(=O)[C@H](C)C[C@H](C)/C=C/C=C/C=C/1C [rapamycin] | – | reduced the amount of IL-1α being secreted
